Measured values reported in article PMC7619497.
Results are given in words; binding and its absence hold for the method and conditions named. In cells and extracts the contact can be indirect. Some entries that bind do so weakly or less than the wild type. Sequences can lack the tags named with a protein.

The chains behind the UniProt entries cited, without tags or fusion partners.
UniProt P20248: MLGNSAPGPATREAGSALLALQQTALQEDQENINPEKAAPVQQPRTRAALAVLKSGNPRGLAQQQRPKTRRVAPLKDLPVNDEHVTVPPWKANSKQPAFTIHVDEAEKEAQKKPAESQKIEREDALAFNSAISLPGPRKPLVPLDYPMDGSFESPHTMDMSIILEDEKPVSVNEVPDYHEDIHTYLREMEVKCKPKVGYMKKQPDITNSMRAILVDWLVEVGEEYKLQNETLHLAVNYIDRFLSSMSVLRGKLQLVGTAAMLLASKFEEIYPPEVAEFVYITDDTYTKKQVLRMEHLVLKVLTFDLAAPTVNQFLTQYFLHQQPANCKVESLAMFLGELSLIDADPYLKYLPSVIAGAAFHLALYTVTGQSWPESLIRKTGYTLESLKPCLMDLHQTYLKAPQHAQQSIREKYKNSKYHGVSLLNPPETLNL

Biological target: T1, C-terminus HA-tagged WT ASCL1 (human) (UniProt P50553)
T1 sequence: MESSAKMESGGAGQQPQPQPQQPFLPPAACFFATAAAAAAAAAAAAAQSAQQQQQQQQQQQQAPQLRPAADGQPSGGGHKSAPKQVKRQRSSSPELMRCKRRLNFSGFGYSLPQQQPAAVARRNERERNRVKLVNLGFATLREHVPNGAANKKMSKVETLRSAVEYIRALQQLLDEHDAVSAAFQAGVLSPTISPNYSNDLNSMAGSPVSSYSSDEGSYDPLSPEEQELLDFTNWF
Assay: co-IP; SK-N-BE(2)C cells expressing HA-tagged ASCL1, 1 ug/mL doxycycline 24 h; lysis in ELB buffer (160 mM NaCl, 0.1% NP-40); 600 ug lysate in IP buffer (150 mM NaCl, 50 mM HEPES pH 7.5) with HA-Trap magnetic agarose beads overnight at 4 C; blot for Cyclin A2 and HA

binding: binds
Substance: Cyclin A2 (from UniProt P20248 1-432)
